# Test results taken from paper PMC7819943, “Rice protein-binding microarrays: a tool to detect cis-acting elements near promoter regions in rice”.
# Protein sequences, listed by entry. Tags and fused reporters are not part of them.
# UniProt Q0JBA9, entry or part of it: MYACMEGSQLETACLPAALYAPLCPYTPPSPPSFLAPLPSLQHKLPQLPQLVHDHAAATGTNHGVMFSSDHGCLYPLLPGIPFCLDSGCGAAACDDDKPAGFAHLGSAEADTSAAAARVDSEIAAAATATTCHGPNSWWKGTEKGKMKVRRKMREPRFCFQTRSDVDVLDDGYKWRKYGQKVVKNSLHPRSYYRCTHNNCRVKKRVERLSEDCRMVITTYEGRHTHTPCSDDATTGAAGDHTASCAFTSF
# The other results are listed elsewhere or left out.
# Molecular target: OsWRKY34 (Oryza sativa, UniProt Q0JBA9 1-250)
# Experiment: protein-binding microarray (RPBM); PBS, 2% BSA, 51.3 ng/ul salmon testes DNA, 50 uM zinc acetate, 200 nM TF, 25 C, 1 h; high values mean tight binding
# Conditions: protein: recombinant; tags: N-terminal polyhistidine and DsRed monomer fusion (pET32a); label: CyDye5-dUTP incorporated in the synthesized complementary strand; 3' TTTTT single-stranded linker to array surface; dsDNA, one strand shown
# Summary of the method: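 Binding signal is reported as fluorescence intensity per feature (arbitrary units) from an Axon 4000B scanner. Incubation used 200 nM of each Ni–NTA-purified, N-terminally polyhistidine- and DsRed-fused transcription factor from E. coli BL21-CodonPlus on a double-stranded custom Agilent array for 1 h at 25 °C, with 50 µM zinc acetate in the buffer, followed by washing.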
row,Sequence,binding signal
1,GCTCCGCCGGTCATCCGCTTTGCCCCGCCCCGCTGCTCTGCGGAGTCACCTAGTGCAG,11300 fluorescence intensity (a.u.)
2,CAACTCCGCGCCACGCGCCTTGCTCGTGCCGCGCCACCGTCGGAGTCACCTAGTGCAG,8940 fluorescence intensity (a.u.)
3,TCTGTGATTTGATGTTTGCCTGTGTTGTGTGCAAAGTTTTCGGAGTCACCTAGTGCAG,16100 fluorescence intensity (a.u.)
4,GCCACCGCCCCTACACCTGCGTCTGAGTTTCCCCGTCCCACGGAGTCACCTAGTGCAG,9960 fluorescence intensity (a.u.)
5,TCTCTGCCAGCCGCCCATCGCACGCCGCCTCCGCCGGCCGCGGAGTCACCTAGTGCAG,11600 fluorescence intensity (a.u.)
6,AGTTGTAGCCCATATGTTCATCTATATCTCCTTGAAAAAACGGAGTCACCTAGTGCAG,8470 fluorescence intensity (a.u.)
7,GCCGAACCCCTTTTTGCTTGACTTGCTAGTTTGCTTGTAACGGAGTCACCTAGTGCAG,11400 fluorescence intensity (a.u.)
8,AGAGGGGTGATCAGGTTTAGTTGTTAGTCCACTACTTTATCGGAGTCACCTAGTGCAG,8100 fluorescence intensity (a.u.)
9,TCCGTCATGCCTCAACCATAATTTTTCATCCATCCATCCACGGAGTCACCTAGTGCAG,9400 fluorescence intensity (a.u.)
10,AGAAGGAGAAGGCGGGGAGAGGCGGGGCGGCCACGGGAGACGGAGTCACCTAGTGCAG,12500 fluorescence intensity (a.u.)
11,TGCAGTTTGTTGTTTGCACCCGGTGAAACATCTTCTTTTGCGGAGTCACCTAGTGCAG,10500 fluorescence intensity (a.u.)
12,ATATGTATGTATTCAGTGCACGCCCATCCTGTCCTCGATTCGGAGTCACCTAGTGCAG,9900 fluorescence intensity (a.u.)
13,GAGGCTGAACCCCATTCCCATGTCTGCTACCCTTCTTTTACGGAGTCACCTAGTGCAG,10800 fluorescence intensity (a.u.)
14,ACCGTATCATTGGATTCCGGCTGCCTTTCTCTATGCTTCACGGAGTCACCTAGTGCAG,8760 fluorescence intensity (a.u.)
15,AAAAAAGTCAACGGCGTCAAACATTTAGGGAAGGAGGGAGCGGAGTCACCTAGTGCAG,9190 fluorescence intensity (a.u.)
16,GAGTGTTGTATAAATTGGAGGCTATATAGCTCTCTCCACCCGGAGTCACCTAGTGCAG,8960 fluorescence intensity (a.u.)
17,ATAGCCTATAAAAGGAGGGGCATTGGGAGGCGGGCTATGTCGGAGTCACCTAGTGCAG,8950 fluorescence intensity (a.u.)
18,ACCTTGCATCAATGCGGTTCTTCGGCCCAGGCGGAGGCGCCGGAGTCACCTAGTGCAG,8760 fluorescence intensity (a.u.)
19,CATTTCAGTACTTTGTACCCGGTTCATTTCATTCCACTATCGGAGTCACCTAGTGCAG,8510 fluorescence intensity (a.u.)
20,TTCTCAATTGTATTTCTATATGGACTCTAGTGTCCTCTTCCGGAGTCACCTAGTGCAG,8930 fluorescence intensity (a.u.)
21,ATTCCATATGCCAATTCCGATTATTATTTGTATTAATTTACGGAGTCACCTAGTGCAG,9370 fluorescence intensity (a.u.)
22,ATGACGCCAGCGACATGCATCACACATATATCACTCTTTCCGGAGTCACCTAGTGCAG,8450 fluorescence intensity (a.u.)
23,ACATCGCGTCCTACTCACACCTCCTCATGTTGCTACTCGACGGAGTCACCTAGTGCAG,10800 fluorescence intensity (a.u.)

# Copied from the list:
# ACATCGCGTCCTACTCACACCTCCTCATGTTGCTACTCGACGGAGTCACCTAGTGCAG | binding signal: 10800 fluorescence intensity (a.u.)
# TCTCTGCCAGCCGCCCATCGCACGCCGCCTCCGCCGGCCGCGGAGTCACCTAGTGCAG | binding signal: 11600 fluorescence intensity (a.u.)
